# Experimental data as given in PubChem BioAssay AID624202 (National Center for Advancing Translational Sciences (NCATS), 2012).
# The entries are a selection whose mix differs from that of the whole data set. Calls of active or inactive are those of the source. Calls come from the whole dose curve; as a rule, active = well fitted activation curve with a large enough effect; inconclusive = small, poorly fitted or top-dose-only effect; inactive = no such curve, though single readings can be large or run the other way.
# Assay: qHTS Assay to Identify Small Molecule Activators of BRCA1 Expression; note: nearly all actives have a fitted effect of over 80% in size
# Details: MCF7-BRCA1-FFLuc reporter, luminescence, 48 h
# Excerpt: Functionally, BRCA1 has been implicated in a wide array of cellular activities, including DNA damage repair, cell-cycle checkpoint control, growth inhibition, apoptosis, transcriptional regulation, chromatin remodeling, protein ubiquitylation, and mammary stem cell self-renewal and differentiation. Reduction in BRCA1 levels is associated with an increase in tumor growth and resistance to anti-estrogenic agents, such as tamoxifen, while an increase in BRCA1 expression leads to cell growth arrest and apoptosis. […] The frequent loss of BRCA1 expression in invasive breast cancers in the absence of somatic mutation has been attributed to numerous mechanisms, including hypermethylation of the BRCA1 promoter, exaggerated ubiquitylation of BRCA1 protein, and improper intracellular localization. […]
# 5microl of MCF7-BRCA1-FFLuc cell suspension (400 cells/microl in phenol-red free MEM) are dispensed into Greiner white solid bottom 1536-well assay plates, yielding a final well density of 2000 cells/well. […] The NCGC in-house luciferase substrate reagent, Buglite, is then added (2.5microl) and plates incubated for 15 minutes, before being transferred to a ViewLux high-throughput CCD imager (PerkinElmer) wherein single end-point measurements of luminescence are acquired using a clear filter. […]
# Potency is the fitted concentration of half-maximal effect.
row,Compound,Potency
1,Cc1cc(=O)oc2cc(OCc3ccccc3)ccc12,active: 3.16 µM
